These are yes or no findings as the source states them, for the method shown. Binding seen in cells or lysates may run through a third protein. These calls come from enrichment with a bait or labelling near it, and not all partners need be listed.
Molecular target: FLAG-Cdh1 (UniProt Q9UM11)
Assay: affinity purification with mass spectrometry; FLAG-Cdh1 or empty vector transiently expressed 24 h in asynchronous HEK-293T; MG-132 10 uM 4 h before lysis; NETN lysis; anti-FLAG M2 agarose 6 h at 4°C; glycine elution; tryptic digest, LC-MS/MS

Amino acid sequences for entries named in this document (tags omitted).
UniProt Q9UM11: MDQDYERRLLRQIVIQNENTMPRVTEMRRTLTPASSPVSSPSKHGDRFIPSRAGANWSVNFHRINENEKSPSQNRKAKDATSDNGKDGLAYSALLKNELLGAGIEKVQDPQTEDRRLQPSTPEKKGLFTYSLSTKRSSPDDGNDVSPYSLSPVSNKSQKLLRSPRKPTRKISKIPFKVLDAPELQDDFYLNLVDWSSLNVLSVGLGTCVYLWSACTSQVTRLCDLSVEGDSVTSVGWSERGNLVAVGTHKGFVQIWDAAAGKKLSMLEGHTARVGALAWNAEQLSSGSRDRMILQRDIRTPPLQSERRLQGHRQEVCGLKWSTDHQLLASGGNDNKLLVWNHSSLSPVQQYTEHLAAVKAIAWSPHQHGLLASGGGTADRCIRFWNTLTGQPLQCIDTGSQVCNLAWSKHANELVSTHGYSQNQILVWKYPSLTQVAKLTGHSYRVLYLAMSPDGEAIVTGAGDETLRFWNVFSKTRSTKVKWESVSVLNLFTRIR
UniProt Q9HAW4: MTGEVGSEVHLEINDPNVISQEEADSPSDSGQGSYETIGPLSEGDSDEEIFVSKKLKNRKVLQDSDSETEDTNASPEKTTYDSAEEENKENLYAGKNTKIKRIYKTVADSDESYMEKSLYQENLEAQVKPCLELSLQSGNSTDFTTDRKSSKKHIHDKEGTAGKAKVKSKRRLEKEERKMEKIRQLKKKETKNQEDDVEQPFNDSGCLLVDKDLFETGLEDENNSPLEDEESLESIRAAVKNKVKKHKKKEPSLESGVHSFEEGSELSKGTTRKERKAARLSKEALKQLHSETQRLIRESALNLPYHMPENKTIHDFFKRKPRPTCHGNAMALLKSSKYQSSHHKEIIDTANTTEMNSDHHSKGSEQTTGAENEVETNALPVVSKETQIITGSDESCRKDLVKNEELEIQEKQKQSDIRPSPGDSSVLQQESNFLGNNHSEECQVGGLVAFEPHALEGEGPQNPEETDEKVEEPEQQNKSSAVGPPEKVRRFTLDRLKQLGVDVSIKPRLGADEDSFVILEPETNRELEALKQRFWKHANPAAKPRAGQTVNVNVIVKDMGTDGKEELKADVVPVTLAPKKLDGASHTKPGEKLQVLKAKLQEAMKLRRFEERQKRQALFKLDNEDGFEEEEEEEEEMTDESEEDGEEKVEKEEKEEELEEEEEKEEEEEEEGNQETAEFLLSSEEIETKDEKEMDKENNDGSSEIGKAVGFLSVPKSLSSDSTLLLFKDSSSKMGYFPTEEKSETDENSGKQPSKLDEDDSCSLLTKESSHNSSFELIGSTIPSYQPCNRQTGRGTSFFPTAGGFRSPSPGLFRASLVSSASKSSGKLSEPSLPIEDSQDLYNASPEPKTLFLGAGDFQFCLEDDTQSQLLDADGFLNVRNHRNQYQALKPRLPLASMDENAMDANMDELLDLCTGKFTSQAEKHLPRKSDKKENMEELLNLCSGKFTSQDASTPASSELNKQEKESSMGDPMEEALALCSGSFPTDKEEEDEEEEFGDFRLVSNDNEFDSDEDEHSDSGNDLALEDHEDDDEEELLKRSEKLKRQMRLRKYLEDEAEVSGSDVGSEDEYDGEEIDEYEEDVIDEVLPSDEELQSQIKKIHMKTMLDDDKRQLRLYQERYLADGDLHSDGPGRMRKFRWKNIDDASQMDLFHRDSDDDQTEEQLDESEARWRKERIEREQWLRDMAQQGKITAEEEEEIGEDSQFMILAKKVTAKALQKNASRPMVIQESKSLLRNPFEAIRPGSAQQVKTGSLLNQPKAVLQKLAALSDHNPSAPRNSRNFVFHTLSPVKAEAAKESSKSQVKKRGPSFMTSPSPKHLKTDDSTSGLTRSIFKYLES
UniProt P52732: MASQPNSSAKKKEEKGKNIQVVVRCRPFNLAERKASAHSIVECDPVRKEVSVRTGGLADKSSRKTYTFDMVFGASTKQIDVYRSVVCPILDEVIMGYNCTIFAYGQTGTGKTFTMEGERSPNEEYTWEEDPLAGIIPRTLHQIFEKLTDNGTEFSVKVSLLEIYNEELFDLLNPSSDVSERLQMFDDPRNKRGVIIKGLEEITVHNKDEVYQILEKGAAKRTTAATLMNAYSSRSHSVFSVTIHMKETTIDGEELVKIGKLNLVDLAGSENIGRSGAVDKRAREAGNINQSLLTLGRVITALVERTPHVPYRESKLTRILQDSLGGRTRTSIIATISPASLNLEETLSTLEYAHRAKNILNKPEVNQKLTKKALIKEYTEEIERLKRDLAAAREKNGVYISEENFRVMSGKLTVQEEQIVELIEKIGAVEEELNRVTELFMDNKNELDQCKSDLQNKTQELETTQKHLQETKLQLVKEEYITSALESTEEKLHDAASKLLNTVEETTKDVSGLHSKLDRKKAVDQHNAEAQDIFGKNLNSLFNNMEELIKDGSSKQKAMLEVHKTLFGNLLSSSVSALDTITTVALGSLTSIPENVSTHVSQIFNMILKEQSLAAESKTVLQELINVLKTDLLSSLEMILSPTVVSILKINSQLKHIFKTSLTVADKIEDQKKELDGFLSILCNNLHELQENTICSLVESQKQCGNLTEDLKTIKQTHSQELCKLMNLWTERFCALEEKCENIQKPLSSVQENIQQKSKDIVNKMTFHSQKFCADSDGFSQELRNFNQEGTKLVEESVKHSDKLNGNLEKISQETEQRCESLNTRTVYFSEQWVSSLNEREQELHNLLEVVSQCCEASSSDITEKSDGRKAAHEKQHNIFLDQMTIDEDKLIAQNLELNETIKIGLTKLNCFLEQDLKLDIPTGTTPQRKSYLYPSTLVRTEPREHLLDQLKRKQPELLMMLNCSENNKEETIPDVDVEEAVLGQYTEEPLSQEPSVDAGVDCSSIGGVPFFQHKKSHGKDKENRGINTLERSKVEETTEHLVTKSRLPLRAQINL
UniProt P31350: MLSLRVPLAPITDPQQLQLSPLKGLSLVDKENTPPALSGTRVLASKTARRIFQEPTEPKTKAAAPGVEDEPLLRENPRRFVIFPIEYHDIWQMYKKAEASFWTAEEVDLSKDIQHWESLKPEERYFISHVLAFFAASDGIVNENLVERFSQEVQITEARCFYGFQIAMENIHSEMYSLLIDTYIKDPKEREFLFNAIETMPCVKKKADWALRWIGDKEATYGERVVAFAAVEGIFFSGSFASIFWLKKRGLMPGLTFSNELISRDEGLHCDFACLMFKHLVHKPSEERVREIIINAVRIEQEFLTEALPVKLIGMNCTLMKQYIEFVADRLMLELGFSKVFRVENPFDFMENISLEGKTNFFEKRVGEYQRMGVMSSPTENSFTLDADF

| binding | Substance |
| --- | --- |
| binds | Claspin (from UniProt Q9HAW4 1-1339) |
| binds | Kif11 (from UniProt P52732 1-1056) |
| binds | Rrm2 (from UniProt P31350 1-389) |

Source: paper PMC7758050
